{"source": "patent US10149879B2", "about": "(priority 2014, dated 2018)", "molecular_target": "T1, Aldose reductase (Rattus norvegicus, UniProt P07943)", "T1 construct": "from tissue; STZ-induced diabetic animals", "test": "Aldose reductase activity", "assay_type": "in vivo, rats", "conditions": "H.G. animals; standard drug", "method": "Before utilizing the test drug for human consumption the pre-clinical safety and efficacy profile of single plant candidate extract as well as in combined form was conducted following standard norms. […] The effect of test drug was assessed on glucose levels, insulin level, glycosylated hemoglobin, and pro-inflammatory cytokines, and the most important bio-marker neopterin including various neuro-psychological assessments. […] Aldose Reductase Activity and Glycation of Hemoglobin Following Test Formulation Treatment", "note": "For at least one compound, name, drawing or mass did not settle the structure."}
{"smiles": "CCc1ccc(CCOc2ccc(CC3SC(=O)NC3=O)cc2)nc1", "note": "(stereo not shown) [Pioglitazone]", "values": [{"measurement": "Aldose reductase", "value": "2.99 ± 0.04 μM of NADPH oxidized/g of protein"}]}
